Source: PubChem BioAssay AID651803 (National Center for Advancing Translational Sciences (NCATS), 2012)
The campaign covered roughly 1,200 compounds. Fewer than 10 were called active. The call rests on the fitted dose curve; in most records, active means well fitted curve in the direction sought with a large enough effect; inconclusive means small, poorly fitted or top-dose-only effect, or another doubt; inactive means no such curve, though single readings can be large or run the other way. This is one part of the list.

Chains of the proteins cited; added tags and fusions are not shown. Lines headed by an entry give the natural chain unless they say otherwise; changes in a name come on top.
UniProt P11308: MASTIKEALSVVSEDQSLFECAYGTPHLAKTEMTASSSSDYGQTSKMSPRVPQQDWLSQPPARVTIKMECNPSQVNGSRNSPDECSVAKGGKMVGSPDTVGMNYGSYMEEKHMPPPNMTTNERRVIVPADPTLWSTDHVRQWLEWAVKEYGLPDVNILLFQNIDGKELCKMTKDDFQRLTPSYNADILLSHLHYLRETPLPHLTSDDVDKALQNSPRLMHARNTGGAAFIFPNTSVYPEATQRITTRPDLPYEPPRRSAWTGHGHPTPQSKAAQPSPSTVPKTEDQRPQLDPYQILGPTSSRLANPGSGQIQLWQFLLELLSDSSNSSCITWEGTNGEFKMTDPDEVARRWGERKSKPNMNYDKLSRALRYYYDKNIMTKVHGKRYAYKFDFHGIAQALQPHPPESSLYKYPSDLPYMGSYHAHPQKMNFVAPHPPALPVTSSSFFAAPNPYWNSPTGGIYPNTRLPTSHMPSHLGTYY

molecular target: Transcriptional regulator ERG (Homo sapiens) (UniProt P11308); assay: qHTS for Small Molecule Inhibitors of the ERG Ets/DNA interaction: TR assay against cherry picks; details: ERG Ets domain-DNA fluorescence polarization, Texas red probe; at 154 µM (top of the series); further: % of control where 0% means no effect
In short: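 Polarization read sequentially for fluorescein (ex 480/em 535 nm) and Texas red (ex 555/em 632 nm) probes, 5 nM and 100 nM solutions, displaced from His-ERG Ets domain (1 uM solution), pH 7.5 Tris/KCl/EDTA/DTT buffer.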

Activity change, negative = inhibition, inactive:
CCC(C)NCCOc1ccc(C)cc1[N+](=O)[O-] (configuration not stated) 11.8%, Cc1ccc(-c2[nH]c(-c3ccc(C(=O)O)cc3)nc2-c2ccccc2)cc1 -7.62%, O=C(CNCc1ccc(F)cc1)Nc1ccccc1[N+](=O)[O-] -22%, C=CCOc1ccc(/C=N/NC(=O)C2CCCC2)cc1OCC 5.77%, Cc1ccc([N+](=O)[O-])c2c1C(N1CC(C)OC(C)C1)C(C)(C)O2 (configuration not stated) 5.79%, C=CCn1c(=O)c2ccccc2n2c(SCc3nc(N)nc(Nc4ccccc4C)n3)nnc12 -11.2%, N#Cc1c(NC(=O)CCCN2C(=O)c3ccccc3C2=O)oc(-c2ccccc2)c1-c1ccccc1 3.5%, CCSc1nc2c(c(=O)[nH]c(=O)n2C)n1CC(O)COc1ccccc1 (configuration not stated) 3.35%, CC(=O)Nc1ccc(SCC(=O)N(C)C2CCS(=O)(=O)C2)cc1 (configuration not stated) -0.814%, Oc1ccc(NCc2ccccc2OCc2ccccc2Cl)cc1 -3.49%, COC(=O)[C@H](Cc1ccccc1)NC(=O)Nc1ccc(OC)cc1 1.28%, COc1ccc(Cl)cc1NC(=O)COC(C)=O 12.1%, O=S(=O)(c1ccccc1)c1cnc(-c2cccnc2)nc1-c1ccccc1 4.25%, O=c1ccc2cc(S(=O)(=O)Nc3ccccc3F)ccc2o1 0.772%, O=C1N/C(=C/c2cccs2)C(=O)N1Cc1ccc(F)cc1 12.1%, C[C@H](CO)N1C[C@H](C)[C@@H](CN(C)CC2CC2)Oc2c(NC(=O)C3CC3)cccc2C1=O 1.57%, CCN1CCN(CCCN(Cc2cccs2)C(=S)Nc2ccccc2C)CC1 -20.8%, O=C1/C(=C/c2cccs2)Sc2ccccc21 14.3%, COC(=O)c1ccc(NC(=O)c2cccc(C)c2[N+](=O)[O-])cc1 18.4%, CCOc1ccc(NC(=O)Nc2cccn(Cc3ccccc3)c2=O)cc1 14.5%, CCC(=O)Nc1c(C)ccc2nsnc12 -15.9%, C#CCn1ccc(O)c(Cc2c(F)cccc2Cl)c1=O -6.69%, Clc1ccc(-c2nnc(-c3ccccc3)c(-c3ccccc3)n2)cc1 -9.17%, Cn1c(SCC(=O)N2CCN(C(=O)c3ccco3)CC2)nnc1-c1ccc(NS(C)(=O)=O)cc1 -9.66%, CC1COc2ccccc2N1S(=O)(=O)c1ccc(Cl)cc1 (configuration not stated) 6.25%, O=C(NCC(=O)N(c1cccc(F)c1)C(C(=O)NC1CCCC1)c1cccnc1)c1cccs1 (configuration not stated) -5.1%, COc1cc(C(=O)Cc2nc3ccccc3n2C)cc(OC)c1OC -6.52%, CC(C)C(=O)Nc1ccc(C(=O)N/N=C/c2cc(Br)cc(Br)c2O)cc1 -6.65%, COc1cc(CNCc2ccncc2)cc(OC)c1OC -16.6%, CCN1C(=O)CSc2ccc(C(=O)NC3CCCCC3)cc21 1.14%, CCCCN(C(=S)Nc1cccc(SC)c1)C1CCN(C(C)=O)CC1 11.3%, O=C1[C@H]2[C@@H](c3ccc(F)cc3)N3C(=O)N(c4cccc(F)c4)C(=O)[C@@]3(Cc3ccccc3)[C@H]2C(=O)N1C1CCCCC1 -3.19%, Cc1ccc(S(=O)(=O)NC2CCCC(C(=O)O)C2)cc1 (configuration not stated) -0.865%, Nc1ccc2c3c(cccc13)C(=O)N(c1ccccc1)C2=O 25.2%, CN(C)S(=O)(=O)c1ccc(N2CCCC2)c(C(=O)N2CCC(C(N)=O)CC2)c1 1.97%, O=C(N1CCc2[nH]c3ccccc3c2C1)C(F)(F)F -4.73%, CCOC(=O)CC1COCCN1Cc1cn[nH]c1-c1cc(OC)c(OC)c(OC)c1 (configuration not stated) 5.39%, O=C(CNC(=S)N(Cc1ccccc1)Cc1cccnc1)NC1CCCCC1 4.54%, CN(CC(=O)OCC(=O)NCC(F)(F)F)S(=O)(=O)c1ccc(Cl)cc1 4.61%, CS(=O)(=O)Nc1ccc(N2CCN(c3ccc(C(F)(F)F)cn3)CC2)nc1 11.5%, CC1(c2ccccc2Cl)NC(=O)N(CC(=O)Nc2ccccc2OC(F)F)C1=O (configuration not stated) -12.1%, COc1ccc(/C=N/Nc2nnc(Cc3ccc(OC)c(OC)c3)c(=O)[nH]2)cc1OC 0.391%, COc1ccc(N(CC(=O)NCc2ccco2)S(=O)(=O)c2ccc(C)cc2)cc1 -2.7%, CCN(CC(=O)N1CCCCCC1)S(=O)(=O)c1ccc(Cl)cc1 -1.63%, CCN(CC)CCN1C(=O)C2C(C(=O)Nc3cccc(SC)c3)C3C=CC2(O3)C1C(=O)NC1CCCC(C)C1C (configuration not stated) -8.31%, O=C(NCC1CCCCC1)c1cccc(-c2ccc(O)cc2)c1 -10.7%, CC(Oc1ccc(C(=O)c2ccc(F)cc2)cc1)C(=O)N1CCOCC1 (configuration not stated) -16%, CCc1nnc2c(N3CCN(c4cccc(C(F)(F)F)c4)CC3)nc3ccccc3n12 -11.3%, O=C(NCc1ccccc1)NCc1cccs1 -1.04%, Cc1cc(C(=O)COC(=O)C23CC4CC(CC(O)(C4)C2)C3)c(C)n1C 4.38%, Cc1ccc(NC(=S)NCc2ccc3c(c2)cc(C)n3C)c(C)c1 1.53%, CCOC(=O)c1oc2ccc(S(=O)(=O)n3nc(-c4ccc(OC)cc4)cc3N)cc2c1C 0.498%, CCn1c(=O)cc(OCC(=O)Nc2ccccc2C#N)c2ccccc21 -0.687%, CC1CCN(S(=O)(=O)c2ccc(Cl)s2)CC1 -5.89%, CC(C)Cc1ccc(C(C)C(=O)O)cc1 (configuration not stated) -7.6%, O=c1oc2ccccc2cc1-c1cn2cc(Cc3ccc(F)cc3)sc2n1 -9.09%, CCCCNC(=O)CCC(=O)NNc1nc2ccccc2c2nc(C)nn12 14%, O=C(C1CC(=O)N(c2ccc(F)cc2)C1)N1CCC(c2nc3ccccc3[nH]2)CC1 (configuration not stated) -19.6%, CNc1ccc2c3c(cccc13)C(=O)N(C)C2=O 153%, COc1ccc(C(=O)N(C)Cc2ccc(C)o2)cc1OC1CCN(C(C)C)CC1 1.33%, Cc1cc(=O)oc2cc(OCC(=O)OCC(=O)Nc3ccc(C(C)C)cc3)ccc12 0.864%, CCOc1ccc2[nH]c3c(NCCO)ncnc3c2c1 -27.1%, Cc1cc(NC(=O)CCC(=O)N(CC(=O)NC2CCCC2)c2ccc(C)c(F)c2)no1 1.45%, NC(=O)C1(N2CCCCC2)CCN(C(=O)CSc2nc3ccccc3s2)CC1 -6.18%, CSc1nc2c(c(=O)[nH]1)C(c1cccc(Br)c1)CC(=O)N2 (configuration not stated) 0.965%, Cn1c(=O)c(N)c2c3c(c(Br)ccc31)C(=O)c1ccccc1-2 9.63%, COc1ccc(OC)c(NC(=O)c2cn3c4c(ccc(Cl)c4c2=O)OC(C)C3)c1 (configuration not stated) 4.44%, O=C(Cc1csc(-c2ccccc2)n1)NCc1ccc(F)cc1 2.44%, COc1ccc(CNC(=O)CN2C(=O)NC3(CCCCCC3)C2=O)cc1OC 10.2%, N#CC12COC3(CCCCC3C1(C#N)C#N)OC2=N (configuration not stated) 12.6%, COc1cccc(CN2CCN(S(=O)(=O)c3ccc(NC(C)=O)cc3)CC2)c1OC 0.709%, CCN(C(=O)COC(=O)CSc1ccc(C)cc1C)c1c(N)n(Cc2ccccc2)c(=O)[nH]c1=O 6.29%, O=C(OCC(=O)N1CCN(c2ccccc2)CC1)c1cccc([N+](=O)[O-])c1 -8.8%, Cc1ccccc1C(=O)N/N=C1/SCC(=O)N1Cc1ccccc1 5.82%, CC1(C(=O)O)CCC(C(N)=O)C1(C)C (configuration not stated) -16.1%, COc1cc(/C=N/NS(=O)(=O)c2ccc3ccccc3c2)ccc1OCc1ccc(C(=O)O)cc1 -24.2%, CC(=O)Nc1ccc(NC(=O)C(C)OC(=O)C2CCN(S(=O)(=O)c3ccc4c(c3)OCCO4)CC2)cc1 (configuration not stated) 1.51%, Oc1ccc(NCc2ccccc2OCc2ccccc2)cc1 3.23%, COc1ccc(-c2n(CC(=O)OC3CC(C)CCC3C(C)C)c3ccccc3[n+]2C)cc1 (configuration not stated) 1.26%, O=C(CSC(=S)N1CCCCC1)Nc1ncc2c(n1)CCCC2=O 17.3%, Cn1ccc(C(=O)OCC(=O)Nc2ccccc2)n1 -15.8%, O=C(NCCc1ccc(Cl)cc1)C1CCCN1C(=O)Nc1ccccc1 (configuration not stated) 2.2%, Cc1ccc(CNC(=O)COc2ccc(S(=O)(=O)N3CCCC3)cc2)cc1 0.765%, O=C1C(=O)c2ccccc2C(O)=C1C1CCC(c2ccc(Cl)cc2)CC1 (configuration not stated) -16.1%, O=C(Nc1ccccc1)Nc1ncc([N+](=O)[O-])s1 -16.8%, OC(Cn1cnnc1)c1ccccc1 (configuration not stated) 3.72%, CC1CCN(c2ccc(/C=N/n3nnnc3N)cc2[N+](=O)[O-])CC1 -2.44%, CCCn1c(=O)c(C(=O)NNS(=O)(=O)c2ccc(C)cc2)c(O)c2ccccc21 1.97%, Clc1ccc(-c2cc3ccccc3nc2N2CCOCC2)cc1 -6.53%, Cc1cccc(OCc2ccc(C(=O)N3CCOCC3)o2)c1 4.41%, Cc1ccc(NC(=S)NC(=O)c2cncc(Br)c2)cc1Cl 1.61%, c1ccc(Nc2ncnc3[nH]ncc23)cc1 0.617%
